Test results from patent US8354374B2, “Peptides having pharmacological activity for treating disorders associated with altered cell migration, such as cancer” (Pharmaphelix S.R.L., priority 2006, dated 2013).
Values joined by “and” are separate entries in the source; they are usually repeats but may differ in a detail not shown here. Equal values may be shown once. Not every detail of the peptide structures is certain; ends, links or a residue may be inferred. Square brackets hold non-standard residues; d marks the D form. Peptide text beside a SMILES is read from it. ξ: configuration not given here. ξαMeF = CC(N)(Cc1ccccc1)C(=O)O; Aib = CC(C)(N)C(=O)O

How the values were obtained:
[1] = system: rat basophilic leukemia cells RBL-2H3; assay: Cell migration in Boyden chamber towards fMLP or fibronectin; assay type: cell-based
[2] = system: human fibrosarcoma HT1080 cells; assay: In vitro cell invasion through matrigel towards 10% FBS (Boyden chamber); assay type: cell-based
Protocol: The in vitro cell invasion tests were conducted with Boyden chambers, using polyvinylpyrrolidone free filters, having pores with a diameter of 8 μm (Nucleopore), coated with 70 μg/filter of matrigel and DMEM containing 10% FBS as chemoattractant (Silvestri et al. Int. J. Cancer 102, 562-571, 2002). Human fibrosarcoma HT1080 cells (2×10^5 cells/sample) were deposited in the upper compartment of the chamber in a serum-free culture medium. The lower compartment of the chamber contained DMEM with the addition of 10% FBS as chemotactic source, and the peptides to be assayed, tested at the concentration indicated. The chambers, thus assembled, were placed at 37° C. in a humidified environment containing 5% CO2. After 18 hrs, the cells which had crossed the matrigel and adhered to the lower surface of the filters were fixed, stained and counted. The data represent the average of two independent experiments conducted in duplicate. The results, set out in Table 8, are expressed as the percentage of cells that invade the matrigel in the presence of FBS, but in the absence of peptide (100%). The inhibiting effect of PICM1 and PICM57 on the invasiveness of HT1080 cells is dose-dependent.

[3] = system: RBL-2H3 cells stably transfected with the cDNA of FPR (RBL-2H3/ETFR); assay: Cell migration in Boyden chamber towards fMLP or fibronectin; assay type: cell-based, rat
[4] = system: human fibrosarcoma HT1080 cells; assay: Directional migration towards 10% FBS in Boyden chamber; assay type: cell-based
Protocol: The effect of PICM57 described in example 3 on the cell migration of human fibrosarcoma HT1080 cells was tested. A Boyden chamber equipped with polycarbonate filters, having pores with a diameter of 8 μm (Nucleopore), free of polyvinylpyrrolidone and coated with 5 μg/ml of vitronectin (Promega), was used, as reported in the literature (Carriero et al., Cancer Res. 59, 5307, 1999). 3×10^4 cells, in serum-free DMEM (Dulbecco Modified Eagle Medium), were deposited in the upper compartment of the Boyden chamber. The lower chamber was packed with DMEM containing 10% FBS (Foetal Bovine Serum) as a source of chemotactics, in the presence of increasing concentrations of PICM57. The cells were incubated for 4 h at 37° C. in humidified air containing 5% CO2. After incubation, the cells adhering to the upper surface of the filter were mechanically removed, and the migrated cells adhering to the lower surface of the filter were fixed in ethanol, stained with haematoxylin, and counted at 200× in 10 fields/filter chosen at random. The directional migration in response to FBS in the absence of PICM57 was taken as 100% and the effect of PICM57 on cell migration was evaluated in percentage terms. The data represent the average of three independent experiments conducted in duplicate. The antagonistic effect of PICM57 on migration of HT1080 cells towards FBS is dose-dependent (Table 2). It begins at concentrations of 1 aM, reaches 50% of its maximum value at concentrations of 1 fM, and reaches the maximum effect at concentrations of 10 fM (66% of inhibition).
The mobility induced by FBS in the presence of Metastin[45-54] was evaluated under the same experimental conditions (Table 3). […]

[5] = system: human fibrosarcoma HT1080 cells; assay: FBS-dependent cell proliferation (MTT, optical density 540 nm); assay type: cell-based
[6] = system: HUVEC cells (Human Umbilical Vein Endothelial Cells); assay: In vitro neo-angiogenesis: VEGF-dependent tubule formation on matrigel; assay type: cell-based
Protocol: The in vitro neo-angiogenesis tests were conducted by exploiting the ability of endothelial cells to form, in the presence of pro-angiogenic factors, cords which extend to form a network of microtubules on a layer of polymerised matrigel. For this type of assay, 5×10^4 HUVEC cells (Human Umbilical Vein Endothelial Cells) per well were plated in 24-well plates, in which 300 μl of matrigel was left to polymerise in the presence of 40 ng/ml of VEGF (Vascular Endothelial Growth Factor), used as pro-angiogenic agent, and the peptides indicated, at different concentrations. Tubule formation was evaluated after 18 hours' incubation at 37° C. in 5% CO2, by counting the number of tubular structures in at least 5 fields, chosen at random, with an inverted microscope. The effect of the peptides on VEGF-dependent tubule-forming activity is calculated as a percentage of the number of tubular structures counted in the presence of VEGF (taken as 100%). The data (Table 9) represent the average of two experiments conducted in duplicate. The antagonistic effect of PICM1 and PICM57 on neo-angiogenesis in vitro is dose-dependent. This effect begins at concentrations of aM and reaches the peak action at a concentration of pM (20% of the number of tubular structures counted); 50% of the maximum effect is reached at concentrations of fM. The anti-angiogenic effect exerted by 50 nM of endostatin and the low inhibitory effect exerted by metastin[45-54] are shown by way of comparison.

[7] = system: human fibrosarcoma HT1080 cells; assay: Migration towards 10% FBS of cells pre-incubated with peptide, with or without acid washing; assay type: cell-based; conditions: 100 pM
[8] = 100 pM PICM57, 50 μg/ml fibronectin

CC(=O)N[C@@H](CCCNC(=N)N)C(=O)NC(C)(C)C(=O)N[C@@H](CCCNC(=N)N)C(=O)NC(C)(Cc1ccccc1)C(N)=O (stereo partly drawn) [PICM57, Ac-Arg-Aib-Arg-α(Me)Phe-NH2] (Ac-R[Aib]R[ξαMeF]-NH2)
Cell migration (% of basal migration) ([1]; 100 pM PICM57, 10 nM fMLP): 102%
Cell migration (% of basal migration) [1, 8]: 275%
Cell migration (% of basal migration) ([1]; 100 pM PICM57, no chemotactic): 100%
Cell invasion towards 10% FBS (%) ([2]; 10 pM peptide): 37%
Cell invasion towards 10% FBS (%) ([2]; 10 nM peptide): 31%
Cell invasion towards 10% FBS (%) ([2]; 1 aM peptide, FBS without peptide = 100%): 69%
Cell invasion towards 10% FBS (%) ([2]; 10 aM peptide): 59%
Cell invasion towards 10% FBS (%) ([2]; 10 fM peptide): 41%
Cell migration (% of basal migration) ([3]; 100 pM PICM57, 10 nM fMLP): 99%
Cell migration (% of basal migration) [3, 8]: 215%
Cell migration (% of basal migration) ([3]; 100 pM PICM57, no chemotactic): 100%
Cell Migration towards 10% FBS (%) ([4]; 1 pM peptide, 10% FBS alone = 100%): 37%
Cell Migration towards 10% FBS (%) ([4]; 10 pM peptide, 10% FBS alone = 100%): 41% and 36%
Cell Migration towards 10% FBS (%) ([4]; 100 pM peptide, 10% FBS alone = 100%): 33%
Cell Migration towards 10% FBS (%) ([4]; 1 nM peptide, 10% FBS alone = 100%): 37%
Cell Migration towards 10% FBS (%) ([4]; 10 nM peptide, 10% FBS alone = 100%): 32%
Cell Migration towards 10% FBS (%) ([4]; 100 nM peptide, 10% FBS alone = 100%): 34%
Cell Migration towards 10% FBS (%) ([4]; 1 aM peptide, migration toward 10% FBS alone = 100%): 69% and 70%
Cell Migration towards 10% FBS (%) ([4]; 1 fM peptide, 10% FBS alone = 100%): 43%
Cell Migration towards 10% FBS (%) ([4]; 10 aM peptide, 10% FBS alone = 100%): 54%
Cell Migration towards 10% FBS (%) ([4]; 10 fM peptide, 10% FBS alone = 100%): 39%
Cell Migration towards 10% FBS (%) ([4]; 100 aM peptide, 10% FBS alone = 100%): 63%
Cell Migration towards 10% FBS (%) ([4]; 100 fM peptide, 10% FBS alone = 100%): 35%
concentration at which the antagonistic effect on migration begins ([4]; HT1080 towards FBS): 1 aM
maximum effect (% of inhibition of migration) ([4]; reached at 10 fM): 66%
optical density (λ: 540 nm) ([5]; FBS/100 pM PICM57, 48 h): 0.45 OD
optical density (λ: 540 nm) ([5]; FBS/100 pM PICM57, 72 h): 0.92 OD
optical density (λ: 540 nm) ([5]; FBS/100 pM PICM57, 96 h): 2.02 OD
optical density (λ: 540 nm) ([5]; FBS/100 pM PICM57 reached every 24 h, 48 h): 0.51 OD
optical density (λ: 540 nm) ([5]; FBS/100 pM PICM57 reached every 24 h, 72 h): 1.07 OD
optical density (λ: 540 nm) ([5]; FBS/100 pM PICM57 reached every 24 h, 96 h): 2.3 OD
optical density (λ: 540 nm) ([5]; FBS/100 nM PICM57, 48 h): 0.53 OD
optical density (λ: 540 nm) ([5]; FBS/100 nM PICM57, 72 h): 1.05 OD
optical density (λ: 540 nm) ([5]; FBS/100 nM PICM57, 96 h): 2.18 OD
optical density (λ: 540 nm) ([5]; FBS/100 nM PICM57 reached every 24 hours, 48 h): 0.56 OD
optical density (λ: 540 nm) ([5]; FBS/100 nM PICM57 reached every 24 hours, 72 h): 1 OD
optical density (λ: 540 nm) ([5]; FBS/100 nM PICM57 reached every 24 hours, 96 h): 2.2 OD
concentration at which 50% of the maximum effect on neo-angiogenesis is reached [6]: fM
VEGF-dependent tubule-forming activity (%) ([6]; 10 pM peptide): 23%
VEGF-dependent tubule-forming activity (%) ([6]; 10 nM peptide): 19%
VEGF-dependent tubule-forming activity (%) ([6]; 1 aM peptide, 40 ng/ml VEGF = 100%): 96%
VEGF-dependent tubule-forming activity (%) ([6]; 10 aM peptide): 75%
VEGF-dependent tubule-forming activity (%) ([6]; 10 fM peptide): 53%
tubular structures at peak action (% of VEGF-only control) ([6]; peak action at a concentration of pM): 20%
Cell migration (% of basal migration) ([7]; pre-incubation 15 min, With Acid Washing): 367%
Cell migration (% of basal migration) ([7]; pre-incubation 15 min, Without Acid Washing): 98%
Cell migration (% of basal migration) ([7]; pre-incubation 30 min, With Acid Washing): 350%
Cell migration (% of basal migration) ([7]; pre-incubation 30 min, Without Acid Washing): 103%
Cell migration (% of basal migration) ([7]; pre-incubation 60 min, Without Acid Washing): 112%
Cell migration (% of basal migration) ([7]; pre-incubation 120 min, Without Acid Washing): 120%
